{"source": "PubChem BioAssay AID504784 (Drosophila RNAi Screening Center, 2011)", "test": "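Genome-wide knock-down for genes giving too much or too little stored lipid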 (primary screen)", "system": "Drosophila Kc167 embryonic cells", "reagent": "long dsRNA against Drosophila genes, about 250 ng dsRNA per well", "timing": "4 days", "conditions": "cells fed 400 µM oleic acid bound to BSA", "read-out": "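Cells imaged and segmented; ratio of lipid droplet area to nuclear area, log-transformed, then normalised as a B-score over the screen; higher means more stored lipid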", "direction": "droplet/nuclear area B-score: higher = more stored lipid (overstorage)", "note": "In all, the deposit lists about 17,000 reagents; this is an unselected part of those that have a named target and a result. 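Each column is one replicate's B-score; the combined score over replicates was not deposited, so single values may mislead.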 A plus sign joins genes that one reagent is predicted to hit. Further read-outs or replicates are left out here."}
{"gene knocked down": "Mkp3 (GeneID 40081)", "dsRNA": "DRSC10084", "droplet/nuclear area B-score, replicate 1": -2.4}
{"gene knocked down": "Mkp3 (GeneID 40081)", "dsRNA": "DRSC10085", "droplet/nuclear area B-score, replicate 1": 1.18}
{"gene knocked down": "Csl4 (GeneID 34548)", "dsRNA": "DRSC02944", "droplet/nuclear area B-score, replicate 1": 0.441}
{"gene knocked down": "Csl4 (GeneID 34548)", "dsRNA": "DRSC22664", "droplet/nuclear area B-score, replicate 1": -0.726}
{"gene knocked down": "CG31533 (GeneID 318788)", "dsRNA": "DRSC13018", "droplet/nuclear area B-score, replicate 1": 0.0891}
{"gene knocked down": "comr (GeneID 37492)", "dsRNA": "DRSC04138", "droplet/nuclear area B-score, replicate 1": -0.837}
{"gene knocked down": "INPP5E (GeneID 39404)", "dsRNA": "DRSC09723", "droplet/nuclear area B-score, replicate 1": 0.124}
{"gene knocked down": "Dnz1 (GeneID 34503)", "dsRNA": "DRSC03317", "droplet/nuclear area B-score, replicate 1": -0.739}
{"gene knocked down": "CG15548 (GeneID 43667)", "dsRNA": "DRSC15086", "droplet/nuclear area B-score, replicate 1": -1.82}
{"gene knocked down": "CG3294 (GeneID 33677)", "dsRNA": "DRSC00590", "droplet/nuclear area B-score, replicate 1": -0.0299}
{"gene knocked down": "Awh (GeneID 38451)", "dsRNA": "DRSC08140", "droplet/nuclear area B-score, replicate 1": -0.627}
{"gene knocked down": "Rab9D + Rab9Fa + Rab9E", "dsRNA": "DRSC19853", "droplet/nuclear area B-score, replicate 1": 0.412}
{"gene knocked down": "CG17202 (GeneID 41526)", "dsRNA": "DRSC15194", "droplet/nuclear area B-score, replicate 1": 2.11}
{"gene knocked down": "CG17202 (GeneID 41526)", "dsRNA": "DRSC23073", "droplet/nuclear area B-score, replicate 1": 2.4}
{"gene knocked down": "CG16894 (GeneID 37280)", "dsRNA": "DRSC06634", "droplet/nuclear area B-score, replicate 1": 0.0477}
{"gene knocked down": "CG16894 (GeneID 37280)", "dsRNA": "DRSC21785", "droplet/nuclear area B-score, replicate 1": -0.643}
{"gene knocked down": "Prx3 (GeneID 42109)", "dsRNA": "DRSC15883", "droplet/nuclear area B-score, replicate 1": -0.647}
{"gene knocked down": "CSN3 (GeneID 40308)", "dsRNA": "DRSC11859", "droplet/nuclear area B-score, replicate 1": 0.277}
{"gene knocked down": "Sh3beta (GeneID 38820)", "dsRNA": "DRSC11001", "droplet/nuclear area B-score, replicate 1": -0.441}
{"gene knocked down": "Sh3beta (GeneID 38820)", "dsRNA": "DRSC22053", "droplet/nuclear area B-score, replicate 1": -0.267}
{"gene knocked down": "da (GeneID 34413)", "dsRNA": "DRSC03517", "droplet/nuclear area B-score, replicate 1": 2.78}
{"gene knocked down": "CG12713 (GeneID 39724)", "dsRNA": "DRSC09900", "droplet/nuclear area B-score, replicate 1": 0.58}
{"gene knocked down": "CG17375 (GeneID 33956)", "dsRNA": "DRSC02614", "droplet/nuclear area B-score, replicate 1": -2.01}
{"gene knocked down": "Hesr (GeneID 32800)", "dsRNA": "DRSC19965", "droplet/nuclear area B-score, replicate 1": -0.223}
{"gene knocked down": "PDCD-5 (GeneID 39776)", "dsRNA": "DRSC09955", "droplet/nuclear area B-score, replicate 1": 1.76}
{"gene knocked down": "CG7148 (GeneID 40432)", "dsRNA": "DRSC11802", "droplet/nuclear area B-score, replicate 1": 1.17}
{"gene knocked down": "CG17570 (GeneID 35410)", "dsRNA": "DRSC01770", "droplet/nuclear area B-score, replicate 1": -0.233}
{"gene knocked down": "CG17570 (GeneID 35410)", "dsRNA": "DRSC03754", "droplet/nuclear area B-score, replicate 1": 0.0295}
{"gene knocked down": "Sms (GeneID 39403)", "dsRNA": "DRSC10408", "droplet/nuclear area B-score, replicate 1": 1.72}
{"gene knocked down": "Ufl1 (GeneID 40843)", "dsRNA": "DRSC12527", "droplet/nuclear area B-score, replicate 1": 0.616}
{"gene knocked down": "CG31016 (GeneID 326113)", "dsRNA": "DRSC21359", "droplet/nuclear area B-score, replicate 1": 0.307}

Entries above whose gene name begins with M or m (2):
{"gene knocked down": "Mkp3 (GeneID 40081)", "dsRNA": "DRSC10084", "droplet/nuclear area B-score, replicate 1": -2.4}
{"gene knocked down": "Mkp3 (GeneID 40081)", "dsRNA": "DRSC10085", "droplet/nuclear area B-score, replicate 1": 1.18}

Continued.
{"gene knocked down": "Cpr30B (GeneID 34270)", "dsRNA": "DRSC02728", "droplet/nuclear area B-score, replicate 1": 1.18}
{"gene knocked down": "Caf1-180 (GeneID 31801)", "dsRNA": "DRSC17807", "droplet/nuclear area B-score, replicate 1": -0.346}
{"gene knocked down": "CG15394 (GeneID 33446)", "dsRNA": "DRSC00408", "droplet/nuclear area B-score, replicate 1": 1.55}
{"gene knocked down": "CG46385 (GeneID 246653)", "dsRNA": "DRSC06425", "droplet/nuclear area B-score, replicate 1": 3.69}
{"gene knocked down": "CG46385 (GeneID 246653)", "dsRNA": "DRSC06557", "droplet/nuclear area B-score, replicate 1": 2.17}
{"gene knocked down": "pnut (GeneID 35801)", "dsRNA": "DRSC07666", "droplet/nuclear area B-score, replicate 1": 0.0953}
{"gene knocked down": "CG17192 (GeneID 43248)", "dsRNA": "DRSC15186", "droplet/nuclear area B-score, replicate 1": -0.496}
{"gene knocked down": "PIG-L (GeneID 42388)", "dsRNA": "DRSC15577", "droplet/nuclear area B-score, replicate 1": -1.05}
{"gene knocked down": "Oga (GeneID 42518)", "dsRNA": "DRSC15901", "droplet/nuclear area B-score, replicate 1": -0.207}
{"gene knocked down": "CG15923 (GeneID 42443)", "dsRNA": "DRSC15129", "droplet/nuclear area B-score, replicate 1": -0.0537}
{"gene knocked down": "TfIIEalpha (GeneID 39313)", "dsRNA": "DRSC11303", "droplet/nuclear area B-score, replicate 1": 0.491}
{"gene knocked down": "BomBc3 (GeneID 50055)", "dsRNA": "DRSC15873", "droplet/nuclear area B-score, replicate 1": -0.956}
{"gene knocked down": "CG17049 (retired record) (GeneID 36483)", "dsRNA": "DRSC06650", "droplet/nuclear area B-score, replicate 1": 0.0536}
{"gene knocked down": "CG8206 (GeneID 32516)", "dsRNA": "DRSC20093", "droplet/nuclear area B-score, replicate 1": 0.0315}
{"gene knocked down": "spn-D (GeneID 318579)", "dsRNA": "DRSC22641", "droplet/nuclear area B-score, replicate 1": 0.497}
{"gene knocked down": "BaraB (GeneID 35894)", "dsRNA": "DRSC06420", "droplet/nuclear area B-score, replicate 1": 0.904}
{"gene knocked down": "CG8785 (GeneID 36391)", "dsRNA": "DRSC07266", "droplet/nuclear area B-score, replicate 1": 0.342}
{"gene knocked down": "CG1136 (GeneID 38479)", "dsRNA": "DRSC08184", "droplet/nuclear area B-score, replicate 1": -1.58}
{"gene knocked down": "SmE (GeneID 34080)", "dsRNA": "DRSC02680", "droplet/nuclear area B-score, replicate 1": -0.231}
{"gene knocked down": "BckdhA (GeneID 41149)", "dsRNA": "DRSC16395", "droplet/nuclear area B-score, replicate 1": 0.014}
